For assay [1], the target named is Recombinant RAGE V domain (residues 24–121) (UniProt Q15109). In words: SEC; RAGE V domain (His tag cleaved) on a Superdex 75 column (1.6×60 cm) equilibrated with 20 mM Tris-HCl pH 7.5, 100 mM KCl, 4 mM CaCl2; both purified.
For assay [2] the target is unchanged. In words: ITC; S100P (2.0 mM, syringe) titrated into RAGE V domain (0.06 mM, cell); MicroCal VP-ITC; 25°C; 20 mM Tris-HCl pH 7.0, 100 mM NaCl, 4 mM CaCl2; single-site model; similar approach for the S100P mutants; both purified. A general note: ITC needs no label: the signal is the heat of the interaction.

Amino acid sequences for entries named in this document (tags omitted). Residues count along the entry.
UniProt Q15109, residues 24-121: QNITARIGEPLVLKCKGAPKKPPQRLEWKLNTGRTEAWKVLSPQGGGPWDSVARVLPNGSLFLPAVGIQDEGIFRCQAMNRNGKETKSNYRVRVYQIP

No constants are given. Whether binding was seen depends on the method and setting.

On to “Recombinant RAGE V domain (residues 24–121) (from UniProt Q15109 24-121) (domain or fragment)”, for which the binding entry in assay [1] is “no binding”.

B1: S100P F44G/Y88G/F89G triple mutant (natural protein, UniProt P25815 1-95, looked up)
chain: MTELETAMGMIIDVFSRYSGSEGSTQTLTKGELKVLMEKELPGGLQSGKDKDAVDKLLKDLDANGDAQVDFSEFIVFVAAITSACHKGGEKAGLK
notes: S100P, residues 1-95, with F44G, Y88G and F89G; Section 2.2 prints 'F44G/Y89G/F89G'; every other place prints F44G/Y88G/F89G; Used with 4 mM CaCl2; also called S100P F44G/Y89G/F89G (as printed in the methods); source: E. coli BL21(DE3), pET-20b(+), purified (size exclusion chromatography, Superdex 75)
On to B1, for which the binding result in assay [2] is “no binding”.
